Data as given in PubChem BioAssay AID1053209 (Peter MacCallum Cancer Centre, 2014)
Purpose: 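Knock-downs that sensitise mouse osteosarcoma cells to doxorubicin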 (follow-up of hits). System: mouse primary osteosarcoma cells. Reagent: single siRNA against mouse genes, 25 nM (text also states 40 nM). Time to read-out: about 120 h (48 h before drug, then 72 h with drug). Conditions: doxorubicin 100 nM (about IC30-40), added 48 h after transfection, for 72 h. Measured: 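ATP-based luminescent viability, with or without doxorubicin, relative to non-targeting control NT1, mean of two replicates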. Reading the numbers: viability with doxorubicin, vs NT1: higher = more viable cells under doxorubicin; viability ratio, doxorubicin over no drug: higher = less sensitisation to doxorubicin; viability without drug, vs NT1: higher = more viable cells without drug. Hit rule: 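Counted as active (class LC dox) if viability falls to 0.7 of NT1 or below under doxorubicin but stays within 0.7 to 1.1 without drug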.
This is a random part of about 1,580 deposited reagents. 207 of all reagents (13%) count as active. 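Rows are single siRNAs; four siRNAs per gene were tested, a gene counting as confirmed only when at least two agree.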

| Target gene | PubChem SID | combined effect class | viability with doxorubicin, vs NT1 | viability ratio, doxorubicin over no drug | viability without drug, vs NT1 | Call |
| --- | --- | --- | --- | --- | --- | --- |
| Tbc1d10b | SID152278324 | normal viability with and without drug | 0.98 | 0.94 | 1.04 | inactive |
| Tbc1d10b | SID152294143 | normal viability with and without drug | 1.09 | 1.01 | 1.08 | inactive |
| Tbc1d10b | SID152295074 | low viability only with doxorubicin; normal without drug | 0.68 | 0.8 | 0.85 | active |
| Tbc1d10b | SID152341505 | low viability only with doxorubicin; normal without drug | 0.64 | 0.78 | 0.82 | active |
| Rcor3 | SID152264701 | normal viability with and without drug | 1.01 | 1.01 | 1 | inactive |
| Rcor3 | SID152310744 | low viability only with doxorubicin; normal without drug | 0.66 | 0.73 | 0.91 | active |
| Rcor3 | SID152331771 | normal viability with and without drug | 1.09 | 1.18 | 0.92 | inactive |
| Rcor3 | SID152336788 | normal viability with and without drug | 1.08 | 1.1 | 0.98 | inactive |
| Taco1 | SID152290555 | normal viability with and without drug | 0.9 | 0.96 | 0.94 | inactive |
| Taco1 | SID152293004 | normal viability with and without drug | 0.82 | 0.98 | 0.84 | inactive |
| Taco1 | SID152303650 | normal viability with and without drug | 0.84 | 0.93 | 0.9 | inactive |
| Taco1 | SID152326315 | normal viability with and without drug | 1.07 | 1.02 | 1.05 | inactive |
| Tsc2 | SID152283084 | normal viability with and without drug | 0.96 | 0.96 | 1 | inactive |
| Tsc2 | SID152310403 | normal viability with and without drug | 1 | 1.05 | 0.95 | inactive |
| Tsc2 | SID152313426 | normal viability with and without drug | 0.8 | 0.92 | 0.87 | inactive |
| Tsc2 | SID152317691 | high viability only with doxorubicin | 1.1 | 1.2 | 0.92 | inactive |
| Tssk1 | SID152276235 | normal viability with and without drug | 0.98 | 1.07 | 0.92 | inactive |
| Tssk1 | SID152284965 | high viability with and without drug | 1.14 | 1.04 | 1.1 | inactive |
| Tssk1 | SID152298253 | normal viability with and without drug | 0.72 | 0.75 | 0.96 | inactive |
| Tssk1 | SID152333310 | normal viability with and without drug | 0.99 | 1.01 | 0.98 | inactive |
| Ttc1 | SID152267199 | normal viability with and without drug | 1.08 | 1.09 | 0.99 | inactive |
| Ttc1 | SID152310136 | normal viability with and without drug | 0.98 | 1 | 0.98 | inactive |
| Ttc1 | SID152331246 | normal viability with and without drug | 0.98 | 1.09 | 0.9 | inactive |
| Ttc1 | SID152338815 | normal viability with and without drug | 1.02 | 1.04 | 0.98 | inactive |
